Measurements taken from PubChem BioAssay AID504444 (National Center for Advancing Translational Sciences (NCATS), 2011).
About 7,500 (2.1%) of roughly 360,000 compounds were called active. Inconclusive means that the source gave no clear call. Such entries were picked first, then a sample of the others. Calls follow the shape of the dose curve; as a rule, active = well fitted inhibition curve with a large enough effect; inconclusive = small, poorly fitted or top-dose-only effect, or effect the other way; inactive = flat fitted curve, though single readings scatter. Potencies of inconclusive entries are doubtful fits and often do not repeat.

Assay: Nrf2 qHTS screen for inhibitors; also: nearly all actives have a fitted effect of over 60% in size
Settings: A549 ARE-Fluc reporter, luciferase luminescence, 18-24 h; activity change, negative = inhibition: at 46 µM (top of the series)
Method in brief: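 Cells were seeded and rested 2 h, then exposed to compounds for 18-24 h. CellTiter-Fluor was read first as a viability measure. BugLite was added 15 min before the final luminescent read of ARE-luciferase activity in A549 cells.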
% is scaled to controls: 0 for no effect and ±100 for the full control effect; potency is read from the fitted curve at half-maximal effect.

SMILES | Potency | activity change, negative = inhibition
CC(C)(C)n1cc(S(=O)(=O)c2ccccc2)[nH]c1=O | inconclusive: 16.4 µM [activator, partial curve, poor fit] | 
COc1cccc(NC(=O)c2ccc(S(=O)(=O)NCc3cccnc3)cc2)c1 | inconclusive: 18.4 µM [falling, partial curve, poor fit] | 
Cc1ccc(C)c(S(=O)(=O)N2CCN(C(=O)c3ccc(C)s3)CC2)c1 | inconclusive: 25.9 µM [falling, single point] | 
CCCn1c(CN2CCN(C(=O)OCC)CC2)nc2cc(NC(=O)CC)ccc21 |  | inactive: -8.16%
CC1CCN(c2nc3ccc(C(=O)NCc4ccccc4)cc3s2)CC1 | inconclusive: 10.3 µM [falling, single point] | 
CCSc1cnc(-c2ccccc2)n1CC | inconclusive: 6.51 µM [falling, single point] | 
CN(CCO)c1cc(N2CCCCC2)c2nonc2c1[N+](=O)[O-] | inconclusive: 18.4 µM [activator, single point] | 
CCOC(=O)N1CCN(C(=O)CSc2nc3c([nH]c4ccccc43)c(=O)n2CC)CC1 | inconclusive: 13 µM [falling, partial curve, poor fit] | 
CCCCOC(=O)CCc1nc2ccccc2[nH]c1=O |  | inactive: -10.5%
Cc1ccc(NS(=O)(=O)c2ccc3c(c2)oc(=O)n3C)cc1F | inconclusive: 7.31 µM [falling, partial curve, poor fit] | 
COc1ccc(Nc2sc(C(=O)c3ccc(Cl)cc3)c(N)c2C(=O)Nc2ccccc2OC)cc1 | inconclusive: 10.3 µM [falling, single point] | 
Cc1nnsc1SCCNC(=O)Nc1ccc(Cl)cc1 | inconclusive: 2.91 µM [activator, partial curve, poor fit] | 
O=C(NNC(=O)c1ccco1)c1ccc(NS(=O)(=O)c2cccs2)cc1 |  | inactive: -3.75%
COc1cc(C(=O)Nc2ccc(NC(=O)c3ccccc3)nc2)cc(OC)c1OC | inconclusive: 14.6 µM [falling, partial curve, poor fit] | 
COc1ccc(OC)c2nc(-c3ccc4c(c3)OCO4)ccc12 | inconclusive: 8.2 µM [activator, partial curve] | 
CCC1(C)Cc2c(sc3nc(SC)n(-c4ccc(C)cc4)c(=O)c23)CO1 (configuration not stated) |  | inactive: 4.11%
C=CCn1c(CC#N)nnc1N1CCOCC1 | inconclusive: 11.6 µM [activator, partial curve] | 
CC(=O)Nc1ccc(C(=O)Nc2ccc(S(=O)(=O)N3CCCCC3)cc2)cc1 | inconclusive: 20.6 µM [falling, single point] | 
NS(=O)(=O)c1ccc(CCNS(=O)(=O)c2ccccc2)cc1 | inconclusive: 20.6 µM [falling, single point] | 
Nc1nc(-c2ccco2)nn1S(=O)(=O)c1ccccc1 | inconclusive: 18.4 µM [activator, single point] | 
O=[N+]([O-])c1ccc(NC(=S)NCCc2ccc(Cl)cc2)cc1 | inconclusive: 23.1 µM [falling, single point] | 

SMILES | Potency | activity change, negative = inhibition
CCOC(=O)c1oc2cc(OC(C)=O)ccc2c(=O)c1-c1ccc(OC)c(OC)c1 | inconclusive: 25.9 µM [falling, partial curve, poor fit] | 
CCOc1ccc(NC(=O)CCNC(=O)c2ccc(Br)cc2)cc1 | inconclusive: 29.1 µM [activator, single point] | 
Cc1ccc(NC(=O)c2ccccc2Br)c(C(=O)c2ccccc2)c1 | inconclusive: 6.51 µM [falling, single point] | 
O=C(CN1CCOCC1)N/N=C/c1ccc(-c2ccc(Br)cc2)o1 | inconclusive: 20.6 µM [activator, single point] | 
Cc1nc(N2CCC(C)CC2)c2oc3ccccc3c2n1 | inconclusive: 20.6 µM [falling, single point] | 
CC(NC(=O)Cn1c(NCCO)nc2ccccc21)C1CC2CCC1C2 (configuration not stated) |  | inactive: -19.6%
CCOc1ccc(C(=O)NC(Cc2ccccc2)C(=O)OC)cc1 (configuration not stated) | inconclusive: 20.6 µM [activator, single point] | 
COc1cc(NC(=O)c2ccc(OC)c([N+](=O)[O-])c2)ccc1NC(=O)c1cccs1 | inconclusive: 0.259 µM [falling, full curve, poor fit] | 
O=C(Nc1ccc(Cl)cc1)C(NS(=O)(=O)c1cccs1)c1ccccc1 (configuration not stated) |  | inactive: -14.2%
O=C(Nc1ccc(N=Nc2ccccc2)cc1)c1ccc(Cl)cc1Cl | inconclusive: 20.6 µM [falling, partial curve, poor fit] | 
Cc1cccc(NS(=O)(=O)c2cccc(C(=O)N3CCN(C/C=C/c4ccccc4)CC3)c2)c1 | inconclusive: 23.1 µM [falling, single point] | 
CC(=O)N1CC23C=CC(CC2CC12CCCCCC2)O3 (configuration not stated) | inconclusive: 8.2 µM [falling, partial curve, poor fit] | 
COc1ccc(NC(=O)c2c(NC(=O)CCC(=O)O)sc3c2CCCCC3)cc1 |  | inactive: -0.411%
CCc1cccc(C)c1NC(=O)CN(C)Cc1ccccc1F |  | inactive: 20.4%
CCOC(=O)c1cnc(-n2nc(C)cc2C)nc1NC1CCCCC1 | inconclusive: 23.1 µM [falling, single point] | 
CCOC(=O)C1CCCN(Cc2cn3c(-c4cccc(Br)c4)nnc3s2)C1 (configuration not stated) |  | inactive: -4.59%
Cc1ccc(-n2c(Cc3ccccc3)nnc2SCc2nc(-c3cccs3)no2)cc1C | inconclusive: 29.1 µM [falling, single point] | 
CCOC(=O)c1sc2nc(C)nc(Nc3ccc(OC)c(OC)c3)c2c1C | inconclusive: 29.1 µM [falling, single point] | 
C=C1CCN([C@@H](Cc2ccccc2)C(=O)NCCCc2ccccc2)S(=O)(=O)c2ccccc21 | inconclusive: 16.4 µM [falling, partial curve] | 
Cc1ccc(NC(=O)CSc2nc(O)cc(=O)n2C)cc1 | inconclusive: 0.058 µM [falling, full curve, poor fit] | 
COC(=O)CSCc1nc2ccccc2[nH]c1=O | inconclusive: 0.58 µM [activator, partial curve] | 

Of the compounds above, 4 have an NH in an aromatic ring.
SMILES | Potency | activity change, negative = inhibition
CC(C)(C)n1cc(S(=O)(=O)c2ccccc2)[nH]c1=O | inconclusive: 16.4 µM [activator, partial curve, poor fit] | 
CCOC(=O)N1CCN(C(=O)CSc2nc3c([nH]c4ccccc43)c(=O)n2CC)CC1 | inconclusive: 13 µM [falling, partial curve, poor fit] | 
CCCCOC(=O)CCc1nc2ccccc2[nH]c1=O |  | inactive: -10.5%
COC(=O)CSCc1nc2ccccc2[nH]c1=O | inconclusive: 0.58 µM [activator, partial curve] | 
